Measurements as given in patent publication US12378320B2, “Methods for treating pancreatitis” (Cold Spring Harbor Laboratory, priority 2018, dated 2025).

B1: P08113 (protein, UniProt P08113 1-802, looked up)
chain: MRVLWVLGLCCVLLTFGFVRADDEVDVDGTVEEDLGKSREGSRTDDEVVQREEEAIQLDGLNASQIRELREKSEKFAFQAEVNRMMKLIINSLYKNKEIFLRELISNASDALDKIRLISLTDENALAGNEELTVKIKCDKEKNLLHVTDTGVGMTREELVKNLGTIAKSGTSEFLNKMTEAQEDGQSTSELIGQFGVGFYSAFLVADKVIVTSKHNNDTQHIWESDSNEFSVIADPRGNTLGRGTTITLVLKEEASDYLELDTIKNLVRKYSQFINFPIYVWSSKTETVEEPLEEDEAAKEEKEESDDEAAVEEEEEEKKPKTKKVEKTVWDWELMNDIKPIWQRPSKEVEEDEYKAFYKSFSKESDDPMAYIHFTAEGEVTFKSILFVPTSAPRGLFDEYGSKKSDYIKLYVRRVFITDDFHDMMPKYLNFVKGVVDSDDLPLNVSRETLQQHKLLKVIRKKLVRKTLDMIKKIADEKYNDTFWKEFGTNIKLGVIEDHSNRTRLAKLLRFQSSHHSTDITSLDQYVERMKEKQDKIYFMAGSSRKEAESSPFVERLLKKGYEVIYLTEPVDEYCIQALPEFDGKRFQNVAKEGVKFDESEKTKESREATEKEFEPLLNWMKDKALKDKIEKAVVSQRLTESPCALVASQYGWSGNMERIMKAQAYQTGKDISTNYYASQKKTFEINPRHPLIRDMLRRIKEDEDDKTVMDLAVVLFETATLRSGYLLPDTKAYGDRIERMLRLSLNIDPEAQVEEEPEEEPEDTSEDAEDSEQDEGEEMDAGTEEEEEETEKESTEKDEL
modifications: full-length
B2: Q9JKR6 (protein, UniProt Q9JKR6 1-999, looked up)
chain: MAATVRRQRPRRLLCWALVAVLLADLLALSDTLAVMSVDLGSESMKVAIVKPGVPMEIVLNKESRRKTPVTVTLKENERFLGDSAAGMAIKNPKATLRYFQHLLGKQADNPHVALYRSRFPEHELIVDPQRQTVRFQISPQLQFSPEEVLGMVLNYSRSLAEDFAEQPIKDAVITVPAFFNQAERRAVLQAARMAGLKVLQLINDNTATALSYGVFRRKDINSTAQNVMFYDMGSGSTVCTIVTYQTVKTKEAGMQPQLQIRGVGFDRTLGGLEMELRLREHLAKLFNEQRKGQKAKDVRENPRAMAKLLREANRLKTVLSANADHMAQIEGLMDDVDFKAKVTRVEFEELCADLFDRVPGPVQQALQSAEMSLDQIEQVILVGGATRVPKVQEVLLKAVGKEELGKNINADEAAAMGAVYQAAALSKAFKVKPFVVRDAVIYPILVEFTREVEEEPGLRSLKHNKRVLFSRMGPYPQRKVITFNRYSHDFNFHINYGDLGFLGPEDLRVFGSQNLTTVKLKGVGESFKKYPDYESKGIKAHFNLDESGVLSLDRVESVFETLVEDSPEEESTLTKLGNTISSLFGGGTSSDAKENGTDAVQEEEESPAEGSKDEPAEQGELKEEAEPPAEETSQPPPSEPKGDAAREGEKPDEKESGDKPEAQKPNEKGQAGPEGAAPAPEEDKKPKPARKQKMVEEIGVELAVLDLPDLPEDELARSVQKLEELTLRDLEKQEREKAANSLEAFIFETQDKLYQPEYQEVSTEEQREEISGKLSATSTWLEDEGFGATTVMLKDKLAELRKLCQGLFFRVEERRKWPERLSALDNLLNHSSIFLKGARLIPEMDQVFTEVEMTTLEKVINDTWAWKNATLAEQAKLPATEKPVLLSKDIEAKMMALDREVQYLLNKAKFTKPRPRPKDKNGTRAEPPLNASAGDQEEKVIPPAGQTEEAKPILEPDKEETGTEPADSEPLELGGPGAGPEQEEQSAGQKRPSKNDEL
modifications: full-length
B3: P17751 (protein, UniProt P17751 1-249, looked up)
chain: MAPTRKFFVGGNWKMNGRKKCLGELICTLNAANVPAGTEVVCAPPTAYIDFARQKLDPKIAVAAQNCYKVTNGAFTGEISPGMIKDLGATWVVLGHSERRHVFGESDELIGQKVSHALAEGLGVIACIGEKLDEREAGITEKVVFEQTKVIADNVKDWSKVVLAYEPVWAIGTGKTATPQQAQEVHEKLRGWLKSNVNDGVAQSTRIIYGGSVTGATCKELASQPDVDGFLVGGASLKPEFVDIINAKQ
modifications: full-length
B4: Q9QZE5 (protein, UniProt Q9QZE5 1-874, looked up)
chain: MLKKFDKKDEESGGGSNPLQHLEKSAVLQEARVFNETPINPRKCAHILTKILYLINQGEHLGTTEATEAFFAMTKLFQSNDPTLRRMCYLTIKEMSCIAEDVIIVTSSLTKDMTGKEDNYRGPAVRALCQITDSTMLQAVERYMKQAIVDKVPSVSSSALVSSLHLLKCSFDVVKRWVNEAQEAASSDNIMVQYHALGLLYHVRKNDRLAVSKMISKFTRHGLKSPFAYCMMIRVASKQLEEEDGSRDSPLFDFIESCLRNKHEMVVYEAASAIVNLPGCSAKELAPAVSVLQLFCSSPKAALRYAAVRTLNKVAMKHPSAVTACNLDLENLVTDSNRSIATLAITTLLKTGSESSIDRLMKQISSFMSEISDEFKVVVVQAISALCQKYPRKHAVLMNFLFTMLREEGGFEYKRAIVDCIISIIEENSESKETGLSHLCEFIEDCEFTVLATRILHLLGQEGPKTNNPSKYIRFIYNRVVLEHEEVRAGAVSALAKFGAQNEEMLPSILVLLKRCVMDDDNEVRDRATFYLNVLEQKQKALNAGYILNGLTVSIPGLEKALQQYTLEPSEKPFDLKSVPLATTPMAEQRPESTATAAVKQPEKVAATRQEIFQEQLAAVPEFQGLGPLFKSSPEPVALTESETEYVIRCTKHTFSDHLVFQFDCTNTLNDQTLENVTVQMEPTEAYEVLSYVPARSLPYNQPGTCYTLVALPTEDPTAVACTFSCVMKFTVKDCDPNTGEIDEEGYEDEYVLEDLEVTVADHIQKVMKVNFEAAWDEVGDEFEKEETFTLSTIKTLEEAVGNIVKFLGMHPCERSDKVPENKNTHTLLLAGVFRGGHDILVRSRLLLLDTVTMQVTARSSEELPVDIILASVG
modifications: full-length
B5: Q9DB16 (protein, UniProt Q9DB16 1-337, looked up)
chain: MKKMPLFSKSHKNPAEIVKILKDNLAILEKQDKKTDKASEEVSKSLQAMKEILCGTNDKEPPTEAVAQLAQELYSSGLLVTLIADLQLIDFEGKKDVTQIFNNILRRQIGTRCPTVEYISSHPHILFMLLKGYEAPQIALRCGIMLRECIRHEPLAKIILFSNQFRDFFKYVELSTFDIASDAFATFKDLLTRHKVLVADFLEQNYDTIFEDYEKLLQSENYVTKRQSLKLLGELILDRHNFTIMTKYISKPENLKLMMNLLRDKSPNIQFEAFHVFKVFVASPHKTQPIVEILLKNQPKLIEFLSSFQKERTDDEQFADEKNYLIKQIRDLKKAAP
modifications: full-length
B6: Q9JJN6 (protein, UniProt Q9JJN6 1-81, looked up)
chain: MNREGAPGKSPEEMYIQQKVRVLLMLRKMGSNLTASEEEFLRTYAGVVSSQLSQLPQHSIDQGAEDVVMAFSRSETEDRRQ
modifications: full-length
B7: Q9DCC4 (protein, UniProt Q9DCC4 1-274, looked up)
chain: MAATMSEPRRVGFVGAGRMAEAIARGLIQAGKVEAKQVLASAPTDNNLCHFRALGCQTTHSNHEVLQNCPLVIFATKPQVLPTVLAEVAPIVTTEHIIVSVAAGISLSTMEGLLPPNTRVLRVSPNLPCVVQEGAMVMARGHHAGNDDAELLQNLLEACGQCIEVPESYVDIHTGLSGSGVAFVCTFSEALAEGAIKMGMPSGLAHRIAAQTLLGTAKMLQQEGKHPAQLRTDVLTPAGTTIHGLHALERGGFRAATMSAVEAATCRAKELSKK
modifications: full-length
B8: P32233 (protein, UniProt P32233 1-367, looked up)
chain: MSGTLAKIAEIEAEMARTQKNKATAHHLGLLKARLAKLRRELITPKGGGGGGPGEGFDVAKTGDARIGFVGFPSVGKSTLLSNLAGVYSEVAAYEFTTLTTVPGVIRYKGAKIQLLDLPGIIEGAKDGKGRGRQVIAVARTCNLILIVLDVLKPLGHKKIIENELEGFGIRLNSKPPNIGFKKKDKGGINLTATCPQSELDAETVKSILAEYKIHNADVTLRSDATADDLIDVVEGNRVYIPCIYVLNKIDQISIEELDIIYKVPHCVPISAHHRWNFDDLLEKIWDYLKLVRIYTKPKGQLPDYTSPVVLPYSRTTVEDFCMKIHKNLIKEFKYALVWGLSVKHNPQKVGKDHTLEDEDVIQIVKK
modifications: full-length

Test system: CA19-9 modified proteins
Experiment: CA19-9 IP/MS (iTRAQ) of organoid conditioned media after Dox treatment
Design: species or system mouse
Settings: for 17 0H 5B1 (CA19-9 IP/MS relative abundance) / 17 0H NS19 (CA19-9 IP/MS relative abundance) / 17 8H 5B1 (CA19-9 IP/MS relative abundance) / 17 8H NS19 (CA19-9 IP/MS relative abundance): A217 organoid conditioned media; for 17 0H NS19 (CA19-9 IP/MS relative abundance) / 17 8H NS19 (CA19-9 IP/MS relative abundance) / 20 0H NS19 (CA19-9 IP/MS relative abundance) / 20 8H NS19 (CA19-9 IP/MS relative abundance): NS19-9; for 17 0H NS19 (CA19-9 IP/MS relative abundance): every printed value in this column is 1; for 20 0H 5B1 (CA19-9 IP/MS relative abundance) / 20 0H NS19 (CA19-9 IP/MS relative abundance) / 20 8H 5B1 (CA19-9 IP/MS relative abundance) / 20 8H NS19 (CA19-9 IP/MS relative abundance): A220 organoid conditioned media

| Molecule | 17 0H NS19 (CA19-9 IP/MS relative abundance, A217 (genetic negative) organoid conditioned media, 0H (before treatment), IP with NS19-9, reference channel = 1) | 17 8H 5B1 (CA19-9 IP/MS relative abundance, A217 (genetic negative) organoid conditioned media, after 8 hours, IP with 5B1) | 17 8H NS19 (CA19-9 IP/MS relative abundance, A217 (genetic negative) organoid conditioned media, after 8 hours, IP with NS19-9) | 20 0H 5B1 (CA19-9 IP/MS relative abundance, A220 (C;R^LSL;F) organoid conditioned media, 0H (before treatment), IP with 5B1) | 17 0H 5B1 (CA19-9 IP/MS relative abundance) | 17 0H NS19 (CA19-9 IP/MS relative abundance) | 17 8H 5B1 (CA19-9 IP/MS relative abundance) | 17 8H NS19 (CA19-9 IP/MS relative abundance) | 20 0H 5B1 (CA19-9 IP/MS relative abundance) | 20 0H NS19 (CA19-9 IP/MS relative abundance) | 20 8H 5B1 (CA19-9 IP/MS relative abundance) | 20 8H NS19 (CA19-9 IP/MS relative abundance) |
| --- | --- | --- | --- | --- | --- | --- | --- | --- | --- | --- | --- | --- |
| B1 | 1 | 3.435 | 0.927 | 2.739 |  |  |  |  |  |  |  |  |
| B2 |  |  |  |  | 2.282 | 1 | 2.379 | 0.486 | 3.009 | 0.728 | 2.585 | 0.521 |
| B3 |  |  |  |  | 1.87 | 1 | 1.45 | 0.734 | 1.528 | 0.73 | 1.534 | 0.882 |
| B4 |  |  |  |  | 1.108 | 1 | 1.278 | 0.139 | 1.15 | 0.14 | 1.413 | 0.121 |
| B5 |  |  |  |  | 1.254 | 1 | 1.843 | 1.149 | 1.682 | 0.826 | 1.847 | 4.987 |
| B6 |  |  |  |  | 2.975 | 1 | 3.304 | 1.192 | 1.111 | 1.111 | 0.93 | 0.337 |
| B7 |  |  |  |  | 2.17 | 1 | 1.789 | 0.614 | 2.244 | 0.831 | 3.024 | 0.195 |
| B8 |  |  |  |  | 1.123 | 1 1 | 0.577 | 0.465 | 0.459 | 0.122 | 0.738 | 0.269 |
